{"sequences": {"note": "By UniProt entry, the sequences of proteins in these tests, tags left out. Where a name states a change or a piece, a line headed by the entry shows the natural chain unless it says otherwise.", "UniProt Q9WVJ3": "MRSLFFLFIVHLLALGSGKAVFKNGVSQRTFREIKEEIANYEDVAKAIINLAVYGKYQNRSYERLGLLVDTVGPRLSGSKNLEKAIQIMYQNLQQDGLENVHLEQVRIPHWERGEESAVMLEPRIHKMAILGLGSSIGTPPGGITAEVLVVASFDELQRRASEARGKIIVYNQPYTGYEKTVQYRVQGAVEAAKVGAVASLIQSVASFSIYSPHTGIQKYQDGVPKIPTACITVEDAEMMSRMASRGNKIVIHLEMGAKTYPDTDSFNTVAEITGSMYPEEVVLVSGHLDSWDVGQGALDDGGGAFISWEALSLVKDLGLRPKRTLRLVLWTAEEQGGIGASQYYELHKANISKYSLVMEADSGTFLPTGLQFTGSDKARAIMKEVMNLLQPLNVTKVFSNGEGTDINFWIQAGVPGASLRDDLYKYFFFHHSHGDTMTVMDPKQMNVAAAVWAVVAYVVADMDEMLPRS", "UniProt Q9Z2F6": "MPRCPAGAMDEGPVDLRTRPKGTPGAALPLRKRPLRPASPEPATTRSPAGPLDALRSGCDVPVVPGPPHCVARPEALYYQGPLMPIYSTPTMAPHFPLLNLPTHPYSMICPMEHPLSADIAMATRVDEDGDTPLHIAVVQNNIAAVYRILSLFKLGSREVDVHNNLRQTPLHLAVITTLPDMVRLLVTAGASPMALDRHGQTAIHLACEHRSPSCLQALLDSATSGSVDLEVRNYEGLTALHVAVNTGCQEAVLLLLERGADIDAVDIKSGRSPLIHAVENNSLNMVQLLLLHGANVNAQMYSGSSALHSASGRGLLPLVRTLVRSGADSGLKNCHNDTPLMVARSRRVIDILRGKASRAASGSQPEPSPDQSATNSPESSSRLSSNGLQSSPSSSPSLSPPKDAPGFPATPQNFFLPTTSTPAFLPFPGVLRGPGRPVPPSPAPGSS", "UniProt Q9WVD4": "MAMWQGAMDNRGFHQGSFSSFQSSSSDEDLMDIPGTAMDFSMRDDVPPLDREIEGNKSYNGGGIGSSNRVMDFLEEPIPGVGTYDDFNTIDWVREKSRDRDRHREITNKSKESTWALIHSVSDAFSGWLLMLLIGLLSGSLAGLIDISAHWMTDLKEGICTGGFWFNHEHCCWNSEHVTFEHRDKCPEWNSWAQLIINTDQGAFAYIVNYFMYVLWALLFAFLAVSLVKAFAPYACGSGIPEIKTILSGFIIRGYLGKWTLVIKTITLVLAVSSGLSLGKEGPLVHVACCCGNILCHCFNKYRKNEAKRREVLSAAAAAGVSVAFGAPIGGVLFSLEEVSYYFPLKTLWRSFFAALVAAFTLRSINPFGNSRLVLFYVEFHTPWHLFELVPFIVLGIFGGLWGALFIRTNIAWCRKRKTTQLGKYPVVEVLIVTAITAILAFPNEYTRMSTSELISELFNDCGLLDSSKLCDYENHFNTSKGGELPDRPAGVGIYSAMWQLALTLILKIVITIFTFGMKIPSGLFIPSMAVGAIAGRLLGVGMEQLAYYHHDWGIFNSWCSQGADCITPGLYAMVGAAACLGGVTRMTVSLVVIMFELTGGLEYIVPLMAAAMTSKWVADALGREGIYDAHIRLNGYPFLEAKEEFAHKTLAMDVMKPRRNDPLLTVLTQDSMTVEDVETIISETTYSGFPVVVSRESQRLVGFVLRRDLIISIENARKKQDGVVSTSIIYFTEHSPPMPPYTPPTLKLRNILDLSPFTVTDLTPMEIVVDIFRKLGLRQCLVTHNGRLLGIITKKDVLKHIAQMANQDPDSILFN", "UniProt Q9Z2F2": "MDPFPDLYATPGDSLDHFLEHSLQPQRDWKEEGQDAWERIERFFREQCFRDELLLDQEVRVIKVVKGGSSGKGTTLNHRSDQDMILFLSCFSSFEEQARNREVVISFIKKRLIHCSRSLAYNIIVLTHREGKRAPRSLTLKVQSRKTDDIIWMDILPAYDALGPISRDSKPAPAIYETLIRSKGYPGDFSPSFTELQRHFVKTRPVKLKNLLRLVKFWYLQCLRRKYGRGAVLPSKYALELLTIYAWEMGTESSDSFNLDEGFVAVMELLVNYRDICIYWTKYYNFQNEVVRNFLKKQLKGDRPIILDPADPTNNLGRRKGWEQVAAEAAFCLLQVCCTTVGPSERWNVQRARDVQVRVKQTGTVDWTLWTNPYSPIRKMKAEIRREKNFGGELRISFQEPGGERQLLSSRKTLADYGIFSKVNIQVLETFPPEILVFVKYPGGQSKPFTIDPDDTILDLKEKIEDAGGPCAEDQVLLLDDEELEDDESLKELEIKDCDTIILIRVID", "UniProt Q9Z148": "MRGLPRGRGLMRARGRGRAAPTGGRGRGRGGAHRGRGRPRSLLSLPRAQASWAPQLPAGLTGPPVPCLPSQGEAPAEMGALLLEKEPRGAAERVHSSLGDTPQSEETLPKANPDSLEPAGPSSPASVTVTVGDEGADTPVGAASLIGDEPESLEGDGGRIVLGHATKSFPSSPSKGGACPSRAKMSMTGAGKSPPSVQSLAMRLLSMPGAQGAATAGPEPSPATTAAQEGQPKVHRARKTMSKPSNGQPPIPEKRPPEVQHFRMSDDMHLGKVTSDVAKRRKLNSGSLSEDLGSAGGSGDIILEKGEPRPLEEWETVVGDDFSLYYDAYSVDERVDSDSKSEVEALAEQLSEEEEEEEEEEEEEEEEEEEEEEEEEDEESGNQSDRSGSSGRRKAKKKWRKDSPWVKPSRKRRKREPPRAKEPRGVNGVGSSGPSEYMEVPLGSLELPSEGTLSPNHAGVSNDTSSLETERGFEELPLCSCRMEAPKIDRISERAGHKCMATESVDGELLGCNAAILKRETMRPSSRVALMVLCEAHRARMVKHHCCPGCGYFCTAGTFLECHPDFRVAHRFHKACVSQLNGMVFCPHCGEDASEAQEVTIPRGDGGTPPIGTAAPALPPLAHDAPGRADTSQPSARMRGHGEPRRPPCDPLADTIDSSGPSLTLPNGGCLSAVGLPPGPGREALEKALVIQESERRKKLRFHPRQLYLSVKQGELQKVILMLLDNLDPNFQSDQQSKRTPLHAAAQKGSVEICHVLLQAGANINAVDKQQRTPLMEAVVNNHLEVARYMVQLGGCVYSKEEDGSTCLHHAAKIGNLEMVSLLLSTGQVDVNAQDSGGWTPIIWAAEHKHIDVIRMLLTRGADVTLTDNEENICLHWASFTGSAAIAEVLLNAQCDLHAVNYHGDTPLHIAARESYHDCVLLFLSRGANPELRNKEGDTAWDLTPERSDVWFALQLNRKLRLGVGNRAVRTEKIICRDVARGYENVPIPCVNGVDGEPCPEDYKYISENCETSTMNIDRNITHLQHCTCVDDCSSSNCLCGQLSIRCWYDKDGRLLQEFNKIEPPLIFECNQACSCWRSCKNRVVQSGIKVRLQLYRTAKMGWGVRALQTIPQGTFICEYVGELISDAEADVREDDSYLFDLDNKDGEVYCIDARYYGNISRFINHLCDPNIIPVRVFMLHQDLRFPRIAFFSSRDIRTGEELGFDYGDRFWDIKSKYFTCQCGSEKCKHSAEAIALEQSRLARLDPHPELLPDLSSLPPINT", "UniProt Q9Z0Y9, whole entry": "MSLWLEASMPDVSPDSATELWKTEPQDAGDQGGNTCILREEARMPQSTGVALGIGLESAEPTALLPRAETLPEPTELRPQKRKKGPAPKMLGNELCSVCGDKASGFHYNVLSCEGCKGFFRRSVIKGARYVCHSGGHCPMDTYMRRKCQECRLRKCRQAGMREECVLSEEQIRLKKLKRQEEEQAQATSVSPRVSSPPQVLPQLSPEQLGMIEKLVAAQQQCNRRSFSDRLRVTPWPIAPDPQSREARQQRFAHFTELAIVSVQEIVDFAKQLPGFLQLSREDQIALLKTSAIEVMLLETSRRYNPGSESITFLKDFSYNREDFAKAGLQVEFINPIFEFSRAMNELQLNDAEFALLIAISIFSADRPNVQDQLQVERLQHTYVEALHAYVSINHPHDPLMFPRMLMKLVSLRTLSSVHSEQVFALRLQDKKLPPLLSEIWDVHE", "UniProt Q9Z1R4": "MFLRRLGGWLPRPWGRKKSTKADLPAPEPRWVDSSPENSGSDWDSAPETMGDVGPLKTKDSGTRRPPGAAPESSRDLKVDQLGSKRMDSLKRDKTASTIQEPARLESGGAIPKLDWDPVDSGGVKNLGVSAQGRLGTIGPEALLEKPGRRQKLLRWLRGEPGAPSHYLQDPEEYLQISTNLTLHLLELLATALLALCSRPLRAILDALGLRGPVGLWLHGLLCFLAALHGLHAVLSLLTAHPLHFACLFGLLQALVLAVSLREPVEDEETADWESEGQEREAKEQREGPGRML", "UniProt Q9Z1N5, whole entry": "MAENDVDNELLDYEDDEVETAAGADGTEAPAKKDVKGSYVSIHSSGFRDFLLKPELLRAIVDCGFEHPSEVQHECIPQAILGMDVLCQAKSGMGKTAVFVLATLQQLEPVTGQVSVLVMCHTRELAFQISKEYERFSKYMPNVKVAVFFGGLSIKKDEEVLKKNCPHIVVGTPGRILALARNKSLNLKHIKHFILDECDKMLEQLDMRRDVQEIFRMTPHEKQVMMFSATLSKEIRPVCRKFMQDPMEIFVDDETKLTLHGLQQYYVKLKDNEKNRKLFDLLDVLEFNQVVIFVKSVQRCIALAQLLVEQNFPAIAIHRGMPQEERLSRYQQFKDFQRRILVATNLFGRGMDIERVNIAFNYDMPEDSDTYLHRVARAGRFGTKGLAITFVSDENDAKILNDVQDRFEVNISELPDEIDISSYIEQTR", "UniProt Q9Z2Z6": "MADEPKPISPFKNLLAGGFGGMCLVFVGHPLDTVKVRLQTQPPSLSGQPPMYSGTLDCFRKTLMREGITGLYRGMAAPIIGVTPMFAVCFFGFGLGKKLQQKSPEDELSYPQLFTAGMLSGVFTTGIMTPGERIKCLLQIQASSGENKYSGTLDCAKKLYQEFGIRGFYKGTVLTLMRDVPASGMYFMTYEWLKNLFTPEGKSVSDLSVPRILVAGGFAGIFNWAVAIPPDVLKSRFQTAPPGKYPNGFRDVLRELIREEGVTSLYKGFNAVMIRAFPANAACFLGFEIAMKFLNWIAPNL", "UniProt S4R1M9": "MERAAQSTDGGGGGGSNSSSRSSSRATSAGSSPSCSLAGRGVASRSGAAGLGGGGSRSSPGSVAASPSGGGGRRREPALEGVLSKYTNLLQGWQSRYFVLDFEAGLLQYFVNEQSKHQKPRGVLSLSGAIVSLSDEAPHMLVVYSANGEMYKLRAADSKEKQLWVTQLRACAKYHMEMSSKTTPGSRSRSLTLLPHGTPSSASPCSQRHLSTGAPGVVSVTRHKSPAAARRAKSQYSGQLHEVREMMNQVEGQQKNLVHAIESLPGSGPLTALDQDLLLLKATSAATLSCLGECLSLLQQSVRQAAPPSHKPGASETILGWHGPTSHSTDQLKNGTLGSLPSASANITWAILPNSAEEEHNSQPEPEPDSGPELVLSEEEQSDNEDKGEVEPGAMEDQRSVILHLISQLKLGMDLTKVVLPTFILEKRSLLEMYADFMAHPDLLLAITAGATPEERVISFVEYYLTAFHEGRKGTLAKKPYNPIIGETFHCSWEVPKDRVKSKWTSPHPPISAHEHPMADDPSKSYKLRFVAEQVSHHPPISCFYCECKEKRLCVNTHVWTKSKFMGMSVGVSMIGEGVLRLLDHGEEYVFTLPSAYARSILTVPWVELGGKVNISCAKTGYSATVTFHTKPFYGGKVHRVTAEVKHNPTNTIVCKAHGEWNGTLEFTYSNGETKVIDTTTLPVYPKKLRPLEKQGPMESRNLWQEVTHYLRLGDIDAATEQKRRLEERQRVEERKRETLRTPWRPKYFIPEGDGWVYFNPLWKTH", "UniProt Q9Z1D1, whole entry": "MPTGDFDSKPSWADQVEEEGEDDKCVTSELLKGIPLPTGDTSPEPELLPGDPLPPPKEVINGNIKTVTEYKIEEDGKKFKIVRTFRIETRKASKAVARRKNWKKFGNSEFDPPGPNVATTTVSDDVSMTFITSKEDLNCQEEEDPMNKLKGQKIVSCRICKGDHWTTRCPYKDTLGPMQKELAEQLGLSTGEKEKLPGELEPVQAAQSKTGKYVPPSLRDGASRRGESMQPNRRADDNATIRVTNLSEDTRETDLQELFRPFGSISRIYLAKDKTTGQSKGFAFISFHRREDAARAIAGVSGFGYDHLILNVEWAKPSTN"}, "source": "the supplement of paper PMC12819154", "about": "“High-throughput peptide-centric local stability assay extends protein–ligand identification to membrane proteins, tissues and bacteria” (Nature Structural & Molecular Biology, 2025)", "note": "This is one part of the list. Small differences around the control level are noise.", "data": [{"compound": "CN[C@@H]1C[C@H]2O[C@@](C)([C@@H]1OC)n1c3ccccc3c3c4c(c5c6ccccc6n2c5c31)C(=O)NC4 [staurosporine]", "assay": "log2 fold change of tryptic peptide abundance, ligand vs vehicle (limited proteolysis) (log2 ratio); higher = more trypsin-susceptible (destabilized)", "conditions": "ligand concentration: 20 uM; sample: mouse liver crude lysate; replicate design: treated separately", "values": [{"target": "UniProt Q9Z247 (peptide sequence: LAPGFNAEMIVK, peptide start residue: 528)", "log2 fold change": 0.0688}, {"target": "UniProt Q9Z2D6 (peptide sequence: KPGSVVAAAAAEAKK, peptide start residue: 271)", "log2 fold change": -0.574}, {"target": "UniProt Q9Z1P6 (peptide sequence: AAESSAMAATEKK, peptide start residue: 81)", "log2 fold change": 0.0615}, {"target": "UniProt Q9Z2Y3 (peptide sequence: VTELECVSSQANAVHSHK, peptide start residue: 241)", "log2 fold change": 0.806}, {"target": "UniProt Q9Z2G6 (peptide sequence: TYEELKR, peptide start residue: 99)", "log2 fold change": -0.21}, {"target": "UniProt Q9Z1J2 (peptide sequence: LLPSYPGIGK, peptide start residue: 511)", "log2 fold change": -0.308}, {"target": "UniProt Q9WVJ3 (peptide sequence: LGLLVDTVGPR, peptide start residue: 65)", "log2 fold change": -0.0437}, {"target": "UniProt Q9Z223 (peptide sequence: QSVEDNASEPSGK, peptide start residue: 22)", "log2 fold change": 0.194}, {"target": "UniProt Q9Z2S7 (peptide sequence: TLASPEQLEK, peptide start residue: 99)", "log2 fold change": 0.0615}, {"target": "UniProt Q9Z2F6 (peptide sequence: GTPGAALPLR, peptide start residue: 22)", "log2 fold change": -0.193}, {"target": "UniProt Q9WVD4 (peptide sequence: QCLVTHNGR, peptide start residue: 780)", "log2 fold change": 0.185}, {"target": "UniProt Q9Z2F2 (peptide sequence: SLAYNIIVLTHR, peptide start residue: 118)", "log2 fold change": -0.131}, {"target": "UniProt Q9Z1Q9 (peptide sequence: FGLCAYTSQGR, peptide start residue: 923)", "log2 fold change": 0.271}, {"target": "UniProt Q9Z148 (peptide sequence: VALMVLCEAHR, peptide start residue: 528)", "log2 fold change": 0.18}, {"target": "UniProt Q9Z1Z0 (peptide sequence: DSLIENLK, peptide start residue: 757)", "log2 fold change": -0.512}, {"target": "UniProt Q9Z0Y9 (peptide sequence: LVAAQQQCNRR, peptide start residue: 215)", "log2 fold change": -0.252}, {"target": "UniProt Q9Z2D3 (peptide sequence: SGAIGTVVGK, peptide start residue: 89)", "log2 fold change": 0.105}, {"target": "UniProt Q9Z1P7 (peptide sequence: AEDPDGLAAR, peptide start residue: 268)", "log2 fold change": -0.206}, {"target": "UniProt Q9Z1R4 (peptide sequence: LDWDPVDSGGVK, peptide start residue: 114)", "log2 fold change": -0.0824}, {"target": "UniProt Q9Z0P5 (peptide sequence: HQTLQGLAFPLQPEAQR, peptide start residue: 172)", "log2 fold change": -0.187}, {"target": "UniProt Q9Z1N5 (peptide sequence: HFILDECDK, peptide start residue: 192)", "log2 fold change": -0.337}, {"target": "UniProt Q9Z2Z6 (peptide sequence: FQTAPPGKYPNGFR, peptide start residue: 237)", "log2 fold change": 0.295}, {"target": "UniProt Q9Z2W0 (peptide sequence: VLDLGSPQLAMHSIR, peptide start residue: 427)", "log2 fold change": 0.439}, {"target": "UniProt Q9Z2L7 (peptide sequence: ENVEAAQSYRR, peptide start residue: 18)", "log2 fold change": 0.0995}, {"target": "UniProt Q9Z1K5 (peptide sequence: LFAECHVINPSK, peptide start residue: 155)", "log2 fold change": -0.248}, {"target": "UniProt S4R1M9 (peptide sequence: SSPGSVAASPSGGGGR, peptide start residue: 58)", "log2 fold change": -0.199}, {"target": "UniProt Q9WVQ5 (peptide sequence: QFYHLGWVTGTGGGISLK, peptide start residue: 33)", "log2 fold change": 0.327}, {"target": "UniProt Q9Z2A7 (peptide sequence: TSVGDGYWDLR, peptide start residue: 66)", "log2 fold change": 0.266}, {"target": "UniProt Q9Z1D1 (peptide sequence: EVINGNIK, peptide start residue: 58)", "log2 fold change": -0.217}, {"target": "UniProt Q9Z2N8 (peptide sequence: EGSPANWK, peptide start residue: 231)", "log2 fold change": -0.126}, {"target": "UniProt Q9Z1G4 (peptide sequence: HLGTLNFGGIR, peptide start residue: 675)", "log2 fold change": 0.191}]}]}
